The results in this text go back to paper PMC8935233.

Protein sequences, listed by entry. Tags and fused reporters are not part of them.
UniProt Q92786: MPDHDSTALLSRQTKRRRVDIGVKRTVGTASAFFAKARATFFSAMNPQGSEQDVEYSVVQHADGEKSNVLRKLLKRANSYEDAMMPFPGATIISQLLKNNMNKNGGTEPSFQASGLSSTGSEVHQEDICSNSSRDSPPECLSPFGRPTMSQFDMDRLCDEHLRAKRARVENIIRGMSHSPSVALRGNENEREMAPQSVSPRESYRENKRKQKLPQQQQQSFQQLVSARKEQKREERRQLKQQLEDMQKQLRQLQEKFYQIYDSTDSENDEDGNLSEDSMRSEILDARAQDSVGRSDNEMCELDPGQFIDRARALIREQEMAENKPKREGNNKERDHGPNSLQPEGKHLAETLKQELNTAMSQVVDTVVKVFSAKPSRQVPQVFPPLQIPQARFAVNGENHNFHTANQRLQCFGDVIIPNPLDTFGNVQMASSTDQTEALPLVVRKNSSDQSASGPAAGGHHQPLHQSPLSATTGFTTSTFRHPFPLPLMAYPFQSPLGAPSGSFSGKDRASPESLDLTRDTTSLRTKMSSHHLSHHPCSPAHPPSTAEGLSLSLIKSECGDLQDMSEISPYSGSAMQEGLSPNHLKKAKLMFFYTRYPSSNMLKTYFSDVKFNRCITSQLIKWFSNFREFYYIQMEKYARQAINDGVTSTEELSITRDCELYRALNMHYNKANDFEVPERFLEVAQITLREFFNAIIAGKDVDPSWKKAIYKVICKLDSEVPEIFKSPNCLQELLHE

This test deals with PROX1 (Prospero-related homeobox 1) (human (endogenous in MDA-MB-231)) (UniProt Q92786). Put plainly: co-IP; MDA-MB-231 lysate in NP-40 lysis buffer (20 mM Tris-HCl, 150 mM NaCl, 0.5% NP-40, 20% glycerol), 4 ug antibody and 50 ul protein A/G magnetic beads; Western blotting. A general note: A western blot detects proteins with antibodies after separation by electrophoresis.

These are yes or no findings as the source states them, for the method shown. Binding seen in cells or lysates may run through a third protein. Some entries that bind do so weakly or less than the wild type.

Consider “Heterogeneous ribonucleoprotein K (hnRNPK) (from UniProt P61978 1-463)”, for which the binding result is “binds”.
